Source: PubChem BioAssay AID504582 (Broad Institute, 2011)
The whole screen tested about 340,000 compounds, of which about 2,300 (0.68%) were called active. The inconclusive results got no clear call from the source; some entries with a clear call stand among them for comparison. Rule as the data show it: active = growth rescue above about 28% (passing the limit was not always enough); inconclusive = no clear call, values can overlap the other calls.

Assay: rescue of yeast from PfHsp40 toxicity, primary screen, S. cerevisiae, ATP luminescence (AID 504582);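 also: yeast W303a lacking pdr1 and pdr3 grown in galactose medium; growth measured after three days at 30 °C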
Settings: S. cerevisiae expressing PfHsp40, growth rescue, at 12.5 µM, hits give high values

Structure (SMILES)	growth rescue
O=C(CCc1nnc2n(Cc3ccccc3)c(=O)c3ccccc3n12)NCCCN1CCCCC1	inactive: -0.112%
O=C(NNC(=O)C1CC1c1ccccc1)c1ccccc1[N+](=O)[O-] (stereo unspecified)	inconclusive: 42%
c1ccc2c(c1)N1CCCN=C1N2CCN1CCCCC1	inconclusive: 36.1%
CC(C)CC(c1nnnn1CC1CCCO1)N1CCN(C2CCCC2)CC1 (stereo unspecified)	inconclusive: 26.2%
O=C1CCCN1CCCNc1nc2c(S(=O)(=O)c3ccccc3)nnn2c2ccc(Cl)cc12	inactive: -0.271%
CCCCCCn1c(SCC(=O)c2ccccc2)nc2c1c(=O)[nH]c(=O)n2C	inconclusive: 33.3%
O=C(Cn1nc2ccccc2n1)N/N=C/c1cc([N+](=O)[O-])ccc1O	inactive: 1.9%
CCC(=O)Nc1nnc(-c2cccs2)s1	inactive: 0.646%
C=C(C)COc1ccc(-c2n[nH]c(C)c2-c2ccccc2)c(O)c1	inconclusive: 305%
CCOC(=O)N1CCN(C(=O)c2cc3c(s2)-c2ccc(Cl)cc2S(=O)(=O)C3)CC1	inactive: -1.61%
Cc1ccc2cccc(OC(=O)/C=C\c3ccccc3)c2n1	inconclusive: 29.1%
COc1cccc2sc(Nc3nc(-c4ccncc4)cs3)nc12	inactive: 0.326%
CN(C)CCCN(C(=O)c1ccc(S(=O)(=O)N2CCc3ccccc32)cc1)c1nc2ccc(F)cc2s1	inactive: -0.161%
CNC(=O)c1ccc(NC(=O)/C=C/c2cccc(F)c2)cc1	active: 114%
O=C(NCc1n[nH]c(=S)n1-c1ccccc1)c1ccco1	inactive: -0.762%
CC(=NCc1ccc2c(c1)OCO2)C1=C(O)c2ccccc2C1=O	active: 47.2%
S=C(NCCCn1ccnc1)Nc1cccc(Cl)c1	active: 35%
CC(=O)c1c(OC(=O)c2ccccc2)ccnc1C(F)(F)F	inconclusive: 42.5%
CCOC(=O)C1=C(C)N=C2SC(C)C(=O)N2C1c1ccc(C(=O)OC)cc1 (stereo unspecified)	inconclusive: 37.4%
CC(=O)Nc1ccc(NC(=O)CSc2nnc(N)n2-c2ccccc2)cc1	inactive: -0.0915%
O=C(OCCN1CCCCC1)c1c[nH]c2ccccc12	inconclusive: 33.1%
CCOc1ccccc1N1CCN(C(=S)NCc2ccc(Cl)cc2)CC1	inconclusive: 29.9%

Structure (SMILES)	growth rescue
CC1(C)CC(=O)C=C(c2ccc(-c3ccccc3)cc2)C1	inconclusive: 27%
COc1ccc2c(c1)O[C@H](c1ccc3c(c1)OCO3)[C@@H](O)C2=O	inconclusive: 35.9%
O=[N+]([O-])O[C@H]1CO[C@H]2[C@@H]1OC[C@H]2O[N+](=O)[O-]	inconclusive: 31.2%
CC(C)(CS(=O)(=O)[O-])NC(=O)CC[N+](C)(C)CCO	inconclusive: 34.8%
COc1cc(Br)cc(CNc2ccc(F)c([N+](=O)[O-])c2)c1O	inconclusive: 26.7%
COc1ccc(CN2CCCC(C(=O)N3CCCC3)C2)c(OC)c1 (stereo unspecified)	inconclusive: 26.9%
CCN1CCN(C(CC(C)C)c2nnnn2CS(=O)(=O)c2ccc(C)cc2)CC1 (stereo unspecified)	inconclusive: 33.3%
O=C1C(F)=CC(COC(c2ccccc2)(c2ccccc2)c2ccccc2)OC1n1cc(F)c(=O)[nH]c1=O (stereo unspecified)	active: 154%
COC(=O)c1c(NC(=O)c2nc3ccccc3s2)sc2c1CC(C)(C)NC2(C)C	inactive: 1.46%
O=C(Nc1ccc(Cl)cc1)N1CCC(c2ccccc2)C1 (stereo unspecified)	inactive: 3.04%
CC(OC(=O)c1ccc(Cl)cc1)C(=O)NCC1CCCCC1 (stereo unspecified)	inconclusive: 71.8%
Cc1ccc(N2CCN(c3ccc(C)cc3)C2c2ccccn2)cc1	inconclusive: 28.5%
Oc1ccc(/C=N/Nc2nc(-c3ccccc3F)nc3ccccc23)c(O)c1	inconclusive: 28.6%
CCOc1ccc(C(NC(C)=O)c2ccc(OC)c(OC)c2)cc1 (stereo unspecified)	inconclusive: 45.4%
COc1ccc(-c2n[nH]c(C)c2-c2ccc(Cl)cc2)c(O)c1	inconclusive: 57.3%
COCCN(C(=O)c1ccccc1F)c1nc(-c2ccc(OC)cc2)cs1	inactive: -1.91%
C(=C\c1ccccc1)/CN1CCN(Cc2nc(Cc3ccccc3)no2)CC1	inconclusive: 28.8%
Cc1ccc(NC(=O)CS(=O)CC(=O)NCC2OCCc3ccccc32)c(C)c1 (stereo unspecified)	inconclusive: 27.8%
CCOC(=O)C1=CN(CC)S(=O)(=O)NC1c1ccc(C(F)(F)F)cc1 (stereo unspecified)	inconclusive: 46.9%
O=C(CNc1cccc2ccccc12)c1ccc([N+](=O)[O-])cc1	inconclusive: 51.8%
C=CCNC(=O)CCCc1ccccc1	inactive: -1.48%
CCOc1ccc(N/C(=N/c2nc(C)cc(C)n2)NC(=O)CC)cc1	inconclusive: 35.3%

Structure (SMILES)	growth rescue
NS(=O)(=O)c1cccc(NC(=O)c2cccnc2Oc2ccccc2)c1	inactive: -2.06%
CCOC(=O)N=Nc1c2ccccc2c2nc3no[nH]c3nc12	active: 116%
CCOC(=O)c1sc(N2C(=O)C(O)=C(C(=O)c3ccc(C)o3)C2c2ccc(OC)c(OC)c2)nc1C (stereo unspecified)	active: 42.3%
CCCCCCN1C=CC(=C2C(=O)c3ccccc3C2=O)C=C1	inactive: 0.597%
O=Nc1c(O)n(Cc2cccc(Cl)c2)c2ccccc12	inactive: 0.24%
Cc1cccc(NC(=S)NNC(=O)c2csc3c2CCCC3)c1	active: 141%
CC1(C)CC(=O)C=C(c2cccc3c2sc2ccccc23)C1	inconclusive: 35.3%
COc1ccc(CNC(=O)Cn2cnc3c(=O)n(C)c(=O)n(C)c32)cc1	inactive: 0.598%
CN(CC1COc2ccccc2O1)C(=O)c1cccc(S(=O)(=O)N2CCCC2)c1 (stereo unspecified)	inactive: -0.103%
CC(=O)/C(N=Nc1cccc(C(F)(F)F)c1)=C(\C)O	inactive: 0.643%
N#Cc1cc2c(nc1SCC(=O)Nc1nccs1)CCCCC2	inconclusive: 40.7%
C/C(=N\Nc1ccc(C(=O)c2c(C)cc3ccccn23)cc1[N+](=O)[O-])c1ccc(O)cc1	inactive: 0.242%
COc1ccc(-c2[nH]n(-c3ccc([N+](=O)[O-])cc3)c(=O)c2C=NCc2ccncc2)cc1	inactive: -0.01%
CCn1c(=O)c(C(=O)Nc2nc3ccccc3[nH]2)c(O)c2ccccc21	inconclusive: 27.7%
COc1ccc(N2CCN(C(=S)Nc3ccc(C)cc3C)CC2)cc1	inconclusive: 41.9%
O=c1c(Cl)c(Cl)cnn1Cc1nnc(-c2ccc(Cl)cc2)o1	active: 236%
COc1cc(C)ccc1OCC(=O)OCC(=O)c1ccc[nH]1	active: 62.4%
O=C(CCSc1nnc(-c2ccncc2)o1)Nc1ccc(F)cc1	inconclusive: 27.6%
COc1ccc(OC)c(-c2c3cc(O)c(=O)cc-3oc3cc(O)c(O)cc23)c1	active: 287%
C=C1C(=O)O[C@H]2[C@H]1[C@H](OC(=O)/C(C)=C\C)C[C@]1(CO1)[C@@H]1[C@H](OC(C)=O)C=C(C)[C@]21O	inactive: -0.846%
O=[N+]([O-])c1ccc(NC(=S)N2CCCC2)cc1	inactive: -0.237%
CCOC(=O)CCC(=O)NCc1ccc2c(c1)cc(C)n2C	inactive: -1.11%

An excerpt of these results, with bars between the fields:
Structure (SMILES) | growth rescue
CCOC(=O)N=Nc1c2ccccc2c2nc3no[nH]c3nc12 | active: 116%
CCCCCCN1C=CC(=C2C(=O)c3ccccc3C2=O)C=C1 | inactive: 0.597%
C/C(=N\Nc1ccc(C(=O)c2c(C)cc3ccccn23)cc1[N+](=O)[O-])c1ccc(O)cc1 | inactive: 0.242%
C=C1C(=O)O[C@H]2[C@H]1[C@H](OC(=O)/C(C)=C\C)C[C@]1(CO1)[C@@H]1[C@H](OC(C)=O)C=C(C)[C@]21O | inactive: -0.846%
CCOC(=O)CCC(=O)NCc1ccc2c(c1)cc(C)n2C | inactive: -1.11%
